Source: PubChem BioAssay AID504786 (Drosophila RNAi Screening Center, 2011)

Assay: 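Fly genes required for HIF-dependent transcription when hypoxia is mimicked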 (primary screen)
System: Drosophila S2 cells with a stable HIF luciferase reporter
Knock-down reagent: long dsRNA against Drosophila genes, about 0.2 µg dsRNA per well of a 384-well plate
Time to read-out: three days of knock-down, then 20 h of DFO before reading
Conditions: desferrioxamine (DFO) at 100 µM, an iron chelator that mimics hypoxia, for 20 h
Detection: 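HIF reporter luminescence in cells given 100 µM DFO for 20 h, using the mouse ldh-a hypoxia-response element, scored as per-plate z-scores; higher means greater loss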
Direction: z-score: higher = stronger loss of HIF reporter signal
The screen tested about 21,000 reagents; this is an unselected part of those that have a named target and a result. 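Primary screen; positive scores mean lost reporter signal, so the sign may be inverted from the usual convention.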 The numbers tell different reagents against one gene apart. A plus sign joins genes that one reagent is predicted to hit.

| z-score, replicate 1 | z-score, replicate 2 | z-score, replicate 3 | z-score, replicate 4 | Gene | dsRNA no. |
| --- | --- | --- | --- | --- | --- |
| 0.3 | -0.6 | – | – | p38b | 1 |
| -0.3 | -0.5 | – | – | Cyp4d8 | 1 |
| -0.4 | -0.9 | – | – | CG9018 | 1 |
| 0.2 | -0.1 | – | – | Cht12 | 1 |
| 1.1 | 0.7 | – | – | trx | 1 |
| -0.3 | -0.6 | -0.9 | -0.3 | alpha-Cat | 1 |
| -0.2 | -0.2 | – | – | CG3906 | 1 |
| -0.1 | 0.4 | – | – | CG2186 | 1 |
| -0.1 | -0.7 | – | – | Zip89B | 1 |
| 0.2 | 0.1 | – | – | asRNA:CR42743 + CG34162 | 1 |
| 1.1 | 1.6 | – | – | MED19 | 1 |
| 0 | 0 | 0.8 | -0.2 | CG32809 | 1 |
| -0.1 | -0.6 | – | – | CG32809 | 2 |
| 0 | -0.1 | – | – | CG32809 | 3 |
| -0.4 | -0.5 | – | – | CG43367 | 1 |
| -0.3 | -0.6 | – | – | CG43367 | 2 |
| -0.2 | 0 | – | – | CG43367 | 3 |
| -0.3 | 1.2 | – | – | CG15445 | 1 |
| -0.5 | 0.6 | – | – | CG9040 | 1 |
| -0.1 | -0.4 | – | – | Wdr81 | 1 |
| 0 | 1.3 | – | – | CG13311 | 1 |
| 0.4 | -0.8 | – | – | Vha13 | 1 |
| -0.5 | -0.4 | – | – | CG4367 | 1 |
| -0.2 | 0 | – | – | AANATL3 | 1 |
| -0.4 | -0.3 | – | – | CG14194 | 1 |
| -0.2 | -0.3 | – | – | CG13869 + CG11099 | 1 |
| -0.4 | 0.5 | – | – | trio | 1 |
| -0.3 | -0.6 | – | – | trio | 2 |
| -0.4 | -0.4 | – | – | trio | 3 |
| -0.1 | -0.2 | – | – | CG14655 | 1 |
| -0.4 | -0.2 | – | – | CG3515 | 1 |
| -0.4 | -0.7 | – | – | CG7557 | 1 |
| -0.1 | -0.2 | – | – | CG4238 | 1 |
| 0 | -0.8 | – | – | CG4238 | 2 |
| -0.4 | -0.8 | – | – | Smurf | 1 |
| -1.1 | -0.3 | – | – | CG14280 | 1 |
| -0.3 | -0.4 | – | – | CG18180 | 1 |
| -0.2 | -0.4 | – | – | Rrp46 | 1 |
| -0.2 | -0.2 | – | – | Pex19 | 1 |
| -0.4 | -0.3 | – | – | CG10472 | 1 |
| -0.2 | 0 | – | – | CG2875 | 1 |
| -0.4 | -1 | 2.4 | 0.4 | CG11350 | 1 |
| -0.4 | -0.7 | – | – | CG6602 | 1 |
| -0.2 | -0.3 | – | – | yip2 | 1 |
| -0.4 | -0.3 | – | – | CG1074 | 1 |
| -0.3 | 0.5 | – | – | CG17821 | 1 |
| 1.4 | 2.6 | – | – | Tbp | 1 |
| -0.3 | -0.1 | – | – | SkpC | 1 |
| -0.3 | -0.5 | – | – | Ance-3 | 1 |
| -0.3 | -0.3 | – | – | Ance-3 | 2 |
| -0.3 | -0.4 | – | – | CG17068 | 1 |
| -0.2 | 0.1 | – | – | mus302 | 1 |
| -0.3 | -0.2 | – | – | CG14929 + CG4970 + CG14930 | 1 |
| -0.3 | 0.2 | – | – | CG42808 + CG42807 | 1 |
| -0.4 | -0.5 | – | – | CG42808 + CG42807 | 2 |
| -0.4 | -0.1 | – | – | CG31300 | 1 |
| -0.3 | 0.1 | – | – | PIG-F | 1 |
| -0.1 | 0.4 | – | – | Anp | 1 |
| 1.5 | 0.8 | – | – | ATPsynB | 1 |
| 1.6 | 1.7 | – | – | Cngl | 1 |
| 0 | -0.2 | – | – | Pde6 | 1 |
| -0.1 | -0.5 | – | – | Pde6 | 2 |
| -0.1 | -0.4 | – | – | Pde6 | 3 |
| -0.4 | -0.6 | -0.3 | -0.1 | chrb | 1 |
| -0.3 | -0.5 | – | – | S1P | 1 |
| -0.2 | -0.7 | – | – | Adgf-B | 1 |
| 0.1 | -0.5 | – | – | CG34320 (retired record) | 1 |
| -0.3 | -0.4 | – | – | alpha-Est5 | 1 |
| -0.2 | 0.4 | – | – | CG32445 | 1 |
| -0.4 | -0.4 | – | – | Ankle2 | 1 |
| -0.3 | -0.2 | – | – | Ankle2 | 2 |
| -0.4 | 0 | – | – | fzr | 1 |
| -0.2 | -0.5 | – | – | Tgt | 1 |
| -0.3 | -0.2 | – | – | Ilp8 | 1 |
| -0.3 | -0.3 | – | – | cd | 1 |
| -0.3 | -0.2 | – | – | CG2150 | 1 |
| -0.2 | -0.6 | – | – | CG4880 | 1 |
| -0.3 | -0.3 | – | – | ntc | 1 |
| -0.4 | -0.3 | – | – | CG11560 | 1 |
| -0.3 | -0.5 | – | – | CG18281 | 1 |
| -0.2 | -0.4 | – | – | CG11854 | 1 |
| -0.2 | -0.8 | – | – | Cyp4ae1 | 1 |
| 0 | -0.5 | – | – | E(z) | 1 |
| -0.2 | -0.1 | – | – | CG34347 | 1 |
| 0 | 0.6 | – | – | CG34347 | 2 |
| -0.1 | 1.1 | – | – | CG34347 | 3 |
| 3.9 | 4.2 | – | – | CG34347 | 4 |
| -0.4 | -0.4 | – | – | hng3 | 1 |
| -0.3 | -0.1 | – | – | Akh | 1 |
| -0.2 | -0.4 | – | – | CG9691 | 1 |
| -0.4 | -0.6 | – | – | mtsh | 1 |
| -0.4 | 0.3 | – | – | CG32687 | 1 |
| -0.3 | -0.1 | – | – | CG32687 | 2 |
| -0.2 | 0.3 | – | – | Or85b | 1 |
| -0.3 | -0.4 | – | – | Cyp4c3 | 1 |
| -0.4 | -0.5 | – | – | CG8237 | 1 |
| -0.4 | -0.6 | – | – | Bhmt | 1 |
| -0.3 | -0.6 | – | – | CG7102 | 1 |
| -0.3 | -0.3 | – | – | CG7102 | 2 |
| -0.3 | -0.3 | – | – | CG8248 | 1 |
| -0.1 | -0.2 | – | – | LPCAT | 1 |
| -0.3 | -0.3 | – | – | LPCAT | 2 |
| 0.1 | 0.8 | – | – | CG14406 | 1 |
| 0.1 | 0.6 | – | – | CG18132 | 1 |
| -0.3 | -0.5 | – | – | lectin-37Db | 1 |
| -0.2 | -0.2 | – | – | Femcoat | 1 |

15 of these entries in another layout.
fzr
- z-score, replicate 1: -0.4
- z-score, replicate 2: 0

Tgt
- z-score, replicate 1: -0.2
- z-score, replicate 2: -0.5

Ilp8
- z-score, replicate 1: -0.3
- z-score, replicate 2: -0.2

cd
- z-score, replicate 1: -0.3
- z-score, replicate 2: -0.3

CG2150
- z-score, replicate 1: -0.3
- z-score, replicate 2: -0.2

CG4880
- z-score, replicate 1: -0.2
- z-score, replicate 2: -0.6

ntc
- z-score, replicate 1: -0.3
- z-score, replicate 2: -0.3

CG11560
- z-score, replicate 1: -0.4
- z-score, replicate 2: -0.3

CG18281
- z-score, replicate 1: -0.3
- z-score, replicate 2: -0.5

CG11854
- z-score, replicate 1: -0.2
- z-score, replicate 2: -0.4

Cyp4ae1
- z-score, replicate 1: -0.2
- z-score, replicate 2: -0.8

E(z)
- z-score, replicate 1: 0
- z-score, replicate 2: -0.5

CG34347 #1
- z-score, replicate 1: -0.2
- z-score, replicate 2: -0.1

CG34347 #2
- z-score, replicate 1: 0
- z-score, replicate 2: 0.6

CG34347 #3
- z-score, replicate 1: -0.1
- z-score, replicate 2: 1.1
